# Library compounds against nucleic acid targets

Data from the ROBIN nucleic acid binder screens, doi:10.1002/anie.202211358.

Oligonucleotides screened, 5′ to 3′:
PreQ1: PreQ1 riboswitch RNA pseudoknot, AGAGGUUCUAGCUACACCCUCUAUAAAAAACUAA. From B. subtilis. About 24,000 compounds screened, about 170 hits.
TPP: TPP riboswitch RNA three-way junction, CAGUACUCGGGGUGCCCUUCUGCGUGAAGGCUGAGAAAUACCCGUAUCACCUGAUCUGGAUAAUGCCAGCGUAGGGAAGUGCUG. About 24,000 compounds screened, about 160 hits.
SAM-II: SAM-II riboswitch RNA pseudoknot, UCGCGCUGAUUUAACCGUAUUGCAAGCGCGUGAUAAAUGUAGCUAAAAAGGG. About 21,000 compounds screened, about 200 hits.

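The test is a small-molecule microarray: each compound is printed twice on a reactive slide, and binding shows as fluorescence of the labelled oligonucleotide after washing. For the PreQ1, TPP and SAM-II riboswitches the laboratory earlier reported (doi:10.1038/s41467-019-09493-3) 1 µM RNA, 2 h, and a rule that included a mean Z-score above 3 (spot signal-to-noise against the whole library), a score well above that on a control array, and duplicate spots agreeing (coefficient of variation under 100). The data file gives only the calls; its cut-offs may differ, and compounds hitting several targets are kept. The calls come from the array alone, and fixing a compound to the slide can hide its binding.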 Key: hit = hit, no hit = tested without a hit. This is an unselected part of the compounds tested. A target missing from an entry has no call listed here.

For Cc1nc(CNc2ccc(F)cc2)n(-c2ccc3c(c2)OCO3)n1 the calls were PreQ1: no hit; TPP: no hit; SAM-II: no hit. With NC(=O)c1noc([C@H](CCCC2CCCCC2)CC(=O)NO)n1 the screen gave PreQ1: no hit; TPP: no hit; SAM-II: no hit. Cc1cccc(-c2nc(N)nc3c2CN(C(=O)CCn2cnnn2)C3C)c1 (stereo not drawn) was scored PreQ1: no hit; TPP: no hit; SAM-II: no hit. CCc1nc(C)sc1C(=O)NCc1cc2n(n1)CCNC2 was scored PreQ1: no hit; TPP: no hit; SAM-II: no hit. With N#Cc1cc2n(c1N)-c1ccccc1C2=O the screen gave PreQ1: no hit; TPP: no hit; SAM-II: no hit. For Cc1ccc(-c2cnc(N)c(C)c2)c(-n2cccn2)c1 the calls were PreQ1: no hit; TPP: no hit; SAM-II: no hit.

Calls for CCCCCCCCCCCCCCCCCCCCCCO are PreQ1: no hit; TPP: no hit; SAM-II: no hit. Calls for O=C(N[C@@H]1CS(=O)(=O)C[C@H]1O)c1csc2nc(-c3ccccc3F)cn12 are PreQ1: no hit; TPP: no hit; SAM-II: no hit. Calls for COc1ccc(CNCCC2(c3ccc(F)cc3)CCOC(C)(C)C2)cc1OC (stereo not drawn) are PreQ1: no hit; TPP: no hit; SAM-II: no hit. For Nc1c(-c2nc(-c3ccc(F)cc3)no2)nnn1-c1ccccc1 the calls were PreQ1: no hit; TPP: no hit. For COc1ccccc1OCCn1c(CO)nc2ccccc21 the calls were PreQ1: no hit; TPP: no hit; SAM-II: no hit. With CCCC(O)c1nc2ccccc2n1CCc1ccccc1 (stereo not drawn) the screen gave PreQ1: no hit; TPP: no hit.

Nc1cc(-c2ccc3c(c2)OCO3)ccn1 was scored PreQ1: no hit; TPP: no hit; SAM-II: no hit. For CC(C)[C@H](CO)Nc1nc(Nc2ccc(C(=O)O)c(Cl)c2)c2ncn(C(C)C)c2n1 the calls were PreQ1: no hit; TPP: no hit; SAM-II: no hit. For CN(c1nccc(=O)[nH]1)C1CCN(c2nc3ccccc3n2Cc2ccc(F)cc2)CC1 the calls were PreQ1: no hit; TPP: no hit; SAM-II: no hit. Nc1nonc1C(=O)NCCNCC#Cc1ccccc1 was scored PreQ1: no hit; TPP: no hit. For Cc1cc(O)cc2c1[C@@H]1CC[C@]3(C)C(=O)CC[C@H]3[C@@H]1C=C2 the calls were PreQ1: no hit; TPP: no hit; SAM-II: no hit. Calls for Cc1c(S(=O)(=O)c2ccc(F)cc2)c(N)n(CCCN(C)C)c1C are PreQ1: no hit; TPP: no hit; SAM-II: no hit.

CC(C)c1nc(NC2CCCCC2)c(C#N)c2c1COC(C)(C)C2 was scored PreQ1: no hit; TPP: no hit; SAM-II: no hit. Calls for COc1ccc(NC2c3ccccc3C(=O)N2c2ccc(C)cn2)c(OC)c1 (stereo not drawn) are PreQ1: no hit; TPP: no hit; SAM-II: no hit. O=c1[nH]nc(-c2cc(-c3ccccc3)nc3ccccc23)o1 was scored PreQ1: no hit; TPP: hit; SAM-II: hit. CCOC(=O)c1cnc2c(-c3ccc(F)cc3)c(COC)nn2c1N was scored PreQ1: no hit; TPP: no hit. Cc1cc(C)c2oc(-c3ccc(N)cc3O)nc2c1 was scored PreQ1: hit; TPP: hit; SAM-II: no hit. Cc1ccc(CN2CCC3(CC2)Nc2ccccc2NC3=O)c2cccnc12 was scored PreQ1: no hit; TPP: no hit; SAM-II: no hit.

For COc1ccc(C2=NC(=O)NC2c2ccc(OC)cc2)cc1 (stereo not drawn) the calls were PreQ1: no hit; TPP: no hit; SAM-II: no hit. Calls for O=C(OCCCNC1=NS(=O)(=O)c2ccccc21)c1ccc(F)cc1 are PreQ1: no hit; TPP: no hit; SAM-II: no hit. CNc1oc(-c2ccc(Cl)cc2Cl)nc1S(=O)(=O)c1ccccc1 was scored PreQ1: no hit; TPP: no hit; SAM-II: no hit. For Clc1cccc(CNc2ncnc3c2nc2n3CCCC2)c1 the calls were PreQ1: no hit; TPP: no hit. CN(CC1CCN(CCc2ccccc2F)CC1)C(=O)C1NCCc2[nH]cnc21 (stereo not drawn) was scored PreQ1: no hit; TPP: no hit; SAM-II: no hit. With O=C(CC(SCCO)c1ccc2c(c1)OCO2)c1cccs1 (stereo not drawn) the screen gave PreQ1: no hit; TPP: no hit; SAM-II: no hit.

CCOC(=O)N1CCC(Nc2c(N3CCC(N4CCCCC4)CC3)c(=O)c2=O)CC1 was scored PreQ1: no hit; TPP: no hit. O=C(c1ccc(C(F)(F)F)nc1O)N1C[C@H]2CNC[C@@]2(C(=O)O)C1 was scored PreQ1: no hit; TPP: no hit; SAM-II: no hit.

3 of the entries, repeated:

- Nc1c(-c2nc(-c3ccc(F)cc3)no2)nnn1-c1ccccc1 | PreQ1: no hit; TPP: no hit
- O=c1[nH]nc(-c2cc(-c3ccccc3)nc3ccccc23)o1 | PreQ1: no hit; TPP: hit; SAM-II: hit
- COc1ccc(NC2c3ccccc3C(=O)N2c2ccc(C)cn2)c(OC)c1 (stereo not drawn) | PreQ1: no hit; TPP: no hit; SAM-II: no hit